{"source": "patent US11338026B2", "about": "“Identification of immunologically protective neo-epitopes for the treatment of cancers” (THE UNIVERSITY OF CONNECTICUT, priority 2014, dated 2022)", "tested_on": "CD8+ cells", "assay": "IFNγ ELISPOT on CD8+ cells of immunized mice", "type": "in vivo, BALB/c mice", "settings": "mice immunized with mutant peptide", "description": "For the ELISPOT assays, the negative controls were CD8+ cells from immunized mice without peptide stimulation. […] The magnitude of responses was rated by mean spot numbers per million CD8+ cells: 5-10 (+); 11-20 (++); 21-50 (+++); 51-100(++++) and >100(+++++).\nAll 18 peptides were used to immunize BALB/c mice. The draining lymph nodes (dLNs) of immunized mice were harvested one week after the single immunization, and the cells were stimulated in vitro for 16 h without any added peptide, the mutant peptide used for immunization, or the corresponding wild type peptide. The CD8+ cells were analyzed for activation (CD44+) and effector function (intracellular IFNγ+). (see Materials and Methods regarding the details of FACS analysis.) All possible patterns of immune-reactivity were observed (FIG. 3A): no immune response (12/18), a mutant peptide-specific, i.e. tumor-specific immune response (5/18), and a cross-reactive response between the mutant and corresponding wild type peptides (1/18).", "note": "Not every detail of the peptide structures is certain; ends, links or a residue may be inferred."}
{"smiles": "CC(C)C[C@H](NC(=O)[C@@H]1CCCN1C(=O)[C@H](Cc1ccccc1)NC(=O)[C@@H](NC(=O)[C@@H](NC(=O)[C@H](CC(C)C)NC(=O)[C@H](Cc1ccc(O)cc1)NC(=O)[C@@H](N)CO)C(C)C)C(C)C)C(=O)O", "note": "[Usp12, SY(l/R)VVFPL]", "values": [{"measurement": "ELISpot", "value": "+++++ (>100 spots/106 CD8 = +++++)"}]}
